# From paper PMC7819943, “Rice protein-binding microarrays: a tool to detect cis-acting elements near promoter regions in rice”
# Sequences of proteins named here, by UniProt entry; tags and fusion partners are left off.
# UniProt Q0JBA9, entry or part of it: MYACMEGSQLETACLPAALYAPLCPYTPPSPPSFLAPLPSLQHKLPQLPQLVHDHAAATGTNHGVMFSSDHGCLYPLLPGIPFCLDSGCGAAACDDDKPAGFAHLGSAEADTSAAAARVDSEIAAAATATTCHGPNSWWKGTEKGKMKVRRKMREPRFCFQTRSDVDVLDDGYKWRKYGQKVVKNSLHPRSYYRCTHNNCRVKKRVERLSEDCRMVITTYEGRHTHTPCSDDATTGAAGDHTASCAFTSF
# Some of the results follow.
# Target: OsWRKY34 (Oryza sativa, UniProt Q0JBA9 1-250)
# Assay: protein-binding microarray (RPBM); PBS, 2% BSA, 51.3 ng/ul salmon testes DNA, 50 uM zinc acetate, 200 nM TF, 25 C, 1 h; high values mean tight binding
# Details: protein: recombinant; tags: N-terminal polyhistidine and DsRed monomer fusion (pET32a); label: CyDye5-dUTP incorporated in the synthesized complementary strand; 3' TTTTT single-stranded linker to array surface; dsDNA, one strand shown
# In short: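 Per-feature fluorescence intensity (arbitrary units), read on an Axon 4000B scanner, is the binding signal. Transcription factors carrying an N-terminal polyhistidine tag and DsRed fusion were expressed in E. coli BL21-CodonPlus and purified on Ni–NTA. A custom Agilent array, made double-stranded by primer extension with Cy5-dUTP and blocked with 2% BSA, was incubated with 200 nM protein in PBS, 2% BSA, salmon testes DNA and 50 µM zinc acetate at 25 °C for 1 h and then washed.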
row,Sequence,binding signal
1,ATCTTCATATGTTTTACTAGCATGCTAATTTGTATGACTCCGGAGTCACCTAGTGCAG,11400 fluorescence intensity (a.u.)
2,GAGCCCGACGAGTCCGAGACCAGCTGCTTCCGCTCCCACTCGGAGTCACCTAGTGCAG,8780 fluorescence intensity (a.u.)
3,AGTTTGTGCTCCTTCCCACCTGCCACCTTCTTCATCTCCTCGGAGTCACCTAGTGCAG,8060 fluorescence intensity (a.u.)
4,ATATTCTATTTCCCTGACGTGTTTATCGGAACCGTCATGACGGAGTCACCTAGTGCAG,8600 fluorescence intensity (a.u.)
5,AGTCCGTTTCTAAGTATATAGTTGCTGGTCGCTTGTATTTCGGAGTCACCTAGTGCAG,10200 fluorescence intensity (a.u.)
6,CATGGTGTTGTGTGACTTGTTCCTCATGTTCTTGCATGTCCGGAGTCACCTAGTGCAG,9660 fluorescence intensity (a.u.)
7,CTCGCACCCCAAAGTTGGCACCACTCTCTCTCTCTCTCTTCGGAGTCACCTAGTGCAG,8750 fluorescence intensity (a.u.)
8,AACATGATTTAACAGGTAACAGTCGCCCATGCCATTCTTGCGGAGTCACCTAGTGCAG,8270 fluorescence intensity (a.u.)
9,GGGCGGCGATCTCCATCGCAGCGGAGGGGAGGGGATCCTGCGGAGTCACCTAGTGCAG,11400 ± 717 fluorescence intensity (a.u.)
10,TCCTCGTCTTGCTCCACAGTACACTCGCACACCCACCACACGGAGTCACCTAGTGCAG,9550 fluorescence intensity (a.u.)
11,ATCACCTGTTCGCCGTGGATCCCGTGCGGCCGCTATCTCGCGGAGTCACCTAGTGCAG,8710 fluorescence intensity (a.u.)
12,ATGGGTTAATTTTGTGGGAAGAAATTGCCCATTGCTAATGCGGAGTCACCTAGTGCAG,8240 fluorescence intensity (a.u.)
13,CCGGTTGAATTTTTCGTGTATTCTCTTTCGGCATACATGTCGGAGTCACCTAGTGCAG,8390 fluorescence intensity (a.u.)
14,GCAATGAGGAGGATGTGCTCGTGGGCTTCACCGTTGACGACGGAGTCACCTAGTGCAG,8300 fluorescence intensity (a.u.)
15,GCATGTATCAATTTTCTGTCCTTACAATTTTTCTATAAACCGGAGTCACCTAGTGCAG,8970 fluorescence intensity (a.u.)
16,GTATTTAATTAGCTCCTCGTCTTGTTCTGCTAAGCTACTACGGAGTCACCTAGTGCAG,9460 fluorescence intensity (a.u.)
17,TTTCTAGCATTTTCCATTTCCTGGTGCACCATTCTTCCAACGGAGTCACCTAGTGCAG,9880 fluorescence intensity (a.u.)
18,GACCGGTTCCATCGTCTCCGCCGTGGACCAGCGCCAACCCCGGAGTCACCTAGTGCAG,10700 fluorescence intensity (a.u.)
19,GATTCCACACAATATTGATCATCTCTCTCTCTCTCTCTCTCGGAGTCACCTAGTGCAG,10000 fluorescence intensity (a.u.)
20,TAGTGGTGGTGCATATGGAGGGTTTTGTGATTTTGACACCCGGAGTCACCTAGTGCAG,8380 fluorescence intensity (a.u.)
21,TTCTTGTTGGGCCGAAATGTTTATGATGTCTTTTGATTCTCGGAGTCACCTAGTGCAG,8850 fluorescence intensity (a.u.)

row,Sequence,binding signal
1,ACCCGTTGTACACCTCACCTCACGCTCAAAGGCAACGCAACGGAGTCACCTAGTGCAG,8700 fluorescence intensity (a.u.)
2,TTCAATACTGGGCCTTGCTTTTTCATATTTTGTTGCCTCTCGGAGTCACCTAGTGCAG,10000 fluorescence intensity (a.u.)
3,CTACACGCGTTACGGACCTTCCGTTATACTCCTTCGGTTTCGGAGTCACCTAGTGCAG,12000 fluorescence intensity (a.u.)
4,GCGCGCTAATCCTCATGCTAATCGTGTTTTACTCTGTAACCGGAGTCACCTAGTGCAG,9340 fluorescence intensity (a.u.)
5,GGTTTCGGTTAACTTTTGTGCACACTCGCCAGTGAGAGTTCGGAGTCACCTAGTGCAG,12300 fluorescence intensity (a.u.)
6,ACTCCATTGGACTCCAATAGCACTATCACACTCGCATTTCCGGAGTCACCTAGTGCAG,10600 fluorescence intensity (a.u.)
7,AACGCCAGGAATCAATACTGTAGTACCGTACATCCAGCGTCGGAGTCACCTAGTGCAG,8260 fluorescence intensity (a.u.)
8,TATACTAGTTTATTTCTCTACCATCTACTTTTATACTAATCGGAGTCACCTAGTGCAG,9040 fluorescence intensity (a.u.)
9,CAACCTTAAACTTTGCTAATAGCCTACTCCTTTCATTATACGGAGTCACCTAGTGCAG,8760 fluorescence intensity (a.u.)
10,GCTCTAAGGGTGGGTTTTGATGGGAGGTTTTGGATGGATACGGAGTCACCTAGTGCAG,14000 fluorescence intensity (a.u.)
11,ATCAAATGGTCATTCCAACGGTTGTCCTGTGCTTTTGTAACGGAGTCACCTAGTGCAG,8020 fluorescence intensity (a.u.)
12,TGCTTCGCCTCGGCCACGCTGCGGCCACCTCCTTTCTGCCCGGAGTCACCTAGTGCAG,8260 fluorescence intensity (a.u.)
13,GCCAAAACATGCCTTTTCAACCTTTGTTTATACCTAATTACGGAGTCACCTAGTGCAG,8510 fluorescence intensity (a.u.)
14,TGCGCTCGCACTCCACTGCTCGGCCCGCCTCGCTCGCGCCCGGAGTCACCTAGTGCAG,10400 fluorescence intensity (a.u.)
15,TATAACACCAATGACTCTATCTTCATCCGCATGCGTGCCGCGGAGTCACCTAGTGCAG,9390 fluorescence intensity (a.u.)
16,ATGCGGATCTGAGTGGTGGTGGTGGTGGACTGGTGGTTGCCGGAGTCACCTAGTGCAG,11000 fluorescence intensity (a.u.)
17,ACACTCTCCTTTCTCAAAACTTATGCTCTTTAGTTTTTCTCGGAGTCACCTAGTGCAG,9450 fluorescence intensity (a.u.)
18,TCCTTTTCCTTTCTTTCTCTTTGTGTTTTCTTACGAGGGCCGGAGTCACCTAGTGCAG,9730 fluorescence intensity (a.u.)
19,TCTCTCTCTCTCTCTGCTTCCGCGAGTGCTCGTTTTTTCCCGGAGTCACCTAGTGCAG,14900 fluorescence intensity (a.u.)
20,ATTGCATGTGTTCACTAGCGACGACGCCGTTTTAGTTTCCCGGAGTCACCTAGTGCAG,10600 fluorescence intensity (a.u.)
21,CGTCCCGGCAGCTACCTCCGCTTTCCACCACGCCGGCCGACGGAGTCACCTAGTGCAG,10800 fluorescence intensity (a.u.)

# Part of the list above, set out differently:
row | Sequence | binding signal
10 | GCTCTAAGGGTGGGTTTTGATGGGAGGTTTTGGATGGATACGGAGTCACCTAGTGCAG | 14000 fluorescence intensity (a.u.)
11 | ATCAAATGGTCATTCCAACGGTTGTCCTGTGCTTTTGTAACGGAGTCACCTAGTGCAG | 8020 fluorescence intensity (a.u.)
12 | TGCTTCGCCTCGGCCACGCTGCGGCCACCTCCTTTCTGCCCGGAGTCACCTAGTGCAG | 8260 fluorescence intensity (a.u.)
13 | GCCAAAACATGCCTTTTCAACCTTTGTTTATACCTAATTACGGAGTCACCTAGTGCAG | 8510 fluorescence intensity (a.u.)
14 | TGCGCTCGCACTCCACTGCTCGGCCCGCCTCGCTCGCGCCCGGAGTCACCTAGTGCAG | 10400 fluorescence intensity (a.u.)
15 | TATAACACCAATGACTCTATCTTCATCCGCATGCGTGCCGCGGAGTCACCTAGTGCAG | 9390 fluorescence intensity (a.u.)
16 | ATGCGGATCTGAGTGGTGGTGGTGGTGGACTGGTGGTTGCCGGAGTCACCTAGTGCAG | 11000 fluorescence intensity (a.u.)
17 | ACACTCTCCTTTCTCAAAACTTATGCTCTTTAGTTTTTCTCGGAGTCACCTAGTGCAG | 9450 fluorescence intensity (a.u.)
18 | TCCTTTTCCTTTCTTTCTCTTTGTGTTTTCTTACGAGGGCCGGAGTCACCTAGTGCAG | 9730 fluorescence intensity (a.u.)
19 | TCTCTCTCTCTCTCTGCTTCCGCGAGTGCTCGTTTTTTCCCGGAGTCACCTAGTGCAG | 14900 fluorescence intensity (a.u.)
